Data reported in article PMC11418123, “Structure of a truncated human GlcNAc-1-phosphotransferase variant reveals the basis for its hyperactivity” (The Journal of Biological Chemistry, 2024).
Results are given in words; binding and its absence hold for the method and conditions named. Some binding calls cover weakened binding; strength is not graded here.

Sequences of proteins named here, by UniProt entry; tags and fusion partners are left off. Residues count along the entry.
UniProt Q3T906, residues 44-1209: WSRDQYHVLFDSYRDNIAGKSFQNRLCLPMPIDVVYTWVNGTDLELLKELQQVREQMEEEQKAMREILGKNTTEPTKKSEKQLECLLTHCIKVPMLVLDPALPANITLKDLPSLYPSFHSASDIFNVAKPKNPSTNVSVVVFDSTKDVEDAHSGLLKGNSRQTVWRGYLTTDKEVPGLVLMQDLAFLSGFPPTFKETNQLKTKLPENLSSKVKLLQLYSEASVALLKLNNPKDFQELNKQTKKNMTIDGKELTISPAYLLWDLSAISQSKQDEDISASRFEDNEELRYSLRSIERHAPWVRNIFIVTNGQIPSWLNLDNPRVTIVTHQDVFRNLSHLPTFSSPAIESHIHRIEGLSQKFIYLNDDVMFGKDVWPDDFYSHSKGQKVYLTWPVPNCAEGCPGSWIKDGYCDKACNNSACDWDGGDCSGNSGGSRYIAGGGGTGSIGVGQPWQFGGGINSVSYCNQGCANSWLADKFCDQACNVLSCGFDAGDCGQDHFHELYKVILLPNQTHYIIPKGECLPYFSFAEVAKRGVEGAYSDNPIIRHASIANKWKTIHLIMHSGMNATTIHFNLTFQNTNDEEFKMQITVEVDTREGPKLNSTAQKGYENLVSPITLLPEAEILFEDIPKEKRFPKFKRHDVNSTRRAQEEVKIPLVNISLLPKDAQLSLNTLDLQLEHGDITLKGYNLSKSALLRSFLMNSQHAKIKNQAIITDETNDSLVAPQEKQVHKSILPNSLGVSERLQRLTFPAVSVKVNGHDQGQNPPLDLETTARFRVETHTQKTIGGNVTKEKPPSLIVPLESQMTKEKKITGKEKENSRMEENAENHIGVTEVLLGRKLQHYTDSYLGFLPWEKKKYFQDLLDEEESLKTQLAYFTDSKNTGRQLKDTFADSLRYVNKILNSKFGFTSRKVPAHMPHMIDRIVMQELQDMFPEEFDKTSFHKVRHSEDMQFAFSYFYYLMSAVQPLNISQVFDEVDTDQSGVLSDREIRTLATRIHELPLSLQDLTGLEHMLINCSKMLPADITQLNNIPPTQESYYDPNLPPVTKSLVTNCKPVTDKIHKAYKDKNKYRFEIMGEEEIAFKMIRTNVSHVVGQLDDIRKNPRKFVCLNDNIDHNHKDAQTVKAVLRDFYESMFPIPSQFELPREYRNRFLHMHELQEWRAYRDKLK

Biological target: soluble full-length human GlcNAc-1-phosphotransferase αβ (hPTase-αβ) (human) (UniProt Q3T906)
Experiment: cryo-EM structure; single-particle cryo-EM of hPTase at 0.1 mg/ml incubated with 10 mM UDP-GlcNAc and 10 mM MnCl2 for 6 h at 4 °C; 2.9 Å; both purified

binding: binds
Substance: soluble full-length human GlcNAc-1-phosphotransferase αβ (hPTase-αβ) (from UniProt Q3T906 44-1209) (enzyme)
